Experimental data taken from article PMC12426595 (Cancer Research Communications, 2025).

Test system: 403 nonmutant kinases

C=CC(=O)N1CCC(F)(CNc2ncnc(N)c2-c2ccc(Oc3ccccc3)cc2)CC1
selectivity ratio: 0.015, 0.005, 0.002

Some entries of the source have several records that differ or are many. The other results are left out here. An entry can have further records. Values that stand side by side differ, and nothing given here explains why; some may be repeats, others may stem from another dose, organism or construct than stated.
